Data published in PubChem BioAssay AID1347147 (National Center for Advancing Translational Sciences (NCATS), 2019).
Several values for one entry are separate records, joined by “and”; a condition that tells them apart may be missing. Equal entries are not always repeated. Inconclusive results, whose numbers are uncertain, are shown with a selection of clear calls. Potencies beside an inconclusive call are fits to weak or partial responses and may not hold up. Activity calls are given as the source filed them. The call rests on the fitted dose curve; in most records, active means well fitted inhibition curve with a large enough effect; inconclusive means small, poorly fitted or top-dose-only effect; inactive means no such curve, though single readings can be large or run the other way.

Sequences of proteins named here, by UniProt entry; tags and fusion partners are left off. A change or cut given only in a name is not applied to a line headed by its entry.
UniProt Q9BV86: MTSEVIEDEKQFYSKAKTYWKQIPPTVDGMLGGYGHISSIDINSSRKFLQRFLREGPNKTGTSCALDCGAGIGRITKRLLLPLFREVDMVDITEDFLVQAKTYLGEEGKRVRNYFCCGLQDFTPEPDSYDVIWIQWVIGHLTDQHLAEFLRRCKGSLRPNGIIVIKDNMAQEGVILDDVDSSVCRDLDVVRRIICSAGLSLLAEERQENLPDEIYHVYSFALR

Molecular target: N-terminal Xaa-Pro-Lys N-methyltransferase 1 (Homo sapiens) (UniProt Q9BV86)
Assay: qHTS Assay for Inhibitors of N-terminal methyltransferase 1 (NTMT1): MTaseGlo Confirmatory Screen, Round 2
Details: NTMT1 enzyme, MTase-Glo SAH luminescence; series mostly up to 57.4 µM
Excerpt: Assay Submitter (PI): Rong Huang Ph.D, Purdue University, West Lafayette, IN 47907
The N-terminal methytransferase 1 is the first methyltransferase that methylates protein alpha-N-amines and plays an important role in regulating cell mitosis, chromatin interactions and DNA repair. It is observed to be over-expressed in various cancer patient tissues like malignant melanoma and colorectal cancer tissues. Knockdown of NTMT1 in cancer cells causes cell mitotic defects and enhances sensitivity to DNA damaging chemotherapeutics. […] These critical cellular processes in which NTMT1 is implicated, coupled with emerging links to cellular dysfunction, strengthen the inference that NTMT1 is a compelling novel anticancer target. Progress have been made in understanding the molecular properties of NTMT1 and the biological consequences of protein alpha-N-terminal methylation, but there are no specific small molecule probes available for NTMT1 to fully characterize its MTase activity. To address this unmet need, a panel of assay is created and established to enable quantitative high-throughput screening (qHTS) for novel, potent, and selective small molecule NTMT1 inhibitors. Two orthogonal qHTS that use different reagents (ThioGlo vs. MTaseGlo) are developed for primary robotic screening against the NCATS chemical library of more than 400,000 small molecules. Identified inhibitors are reacquired, validated, and further characterized.
MTaseGlo Assay is a luminescence screen that measure the activity of methyltransferases based on the reaction product S-adenosyl homocysteine (SAH). The substrate SAM is converted to SAH upon enzyme activation. MTase-Glo reagent and detection solution convert SAH to ATP and measure the light from the luciferase reaction.
Early Translation Branch (ETB)
National Center for Advancing Translational Sciences (NCATS)
National Institute of Health (NIH)
NTMT1 enzyme, substrate SPKRIA, control peptide RCC1-6 is provided by the Huang laboratory.
In brief, 3 µL of enzyme mixture (final concentrations of 125 nM and 100 µM for NTMT1 and SAM, respectively) into all wells of a 1,536-well solid-bottom white plate (Greiner Bio One, Monroe, NC). 23 nL of DMSO or Ac-RCC1-10 (final concentration range 234 nM to 143 microM) was transferred via Wako Pin-tool (Wako Automation, Richmond, VA) and incubated (RT) for ~15 minutes. Next, 1 µL of substrate (final concentration 1 µM) or buffer was dispensed, and the reaction proceeded for 30 minutes (RT, protected from light) followed by a 1 microL addition of [5X] MTase-Glo Reagent(R). Samples were incubated (RT, protected from light) for 30 minutes to allow for SAH to be converted to ADP, followed by a 5 microL addition of [1X] MTase-Glo Detection Solution(R) to allow for ADP to be converted to ATP, which was then detected with a luciferase reaction. Samples were centrifuged for 15 seconds at 1,000 RPM's, followed by a RT incubation for 30 minutes. Plates were then read using Luminescence optics on a ViewLux detector. Data were normalized to no-enzyme (0% activity) and no-inhibitor (DMSO; 100%) controls, and the resulting percent inhibition data were fitted to a 4-parameter Hill equation using Graphpad Prism.
Potency means the concentration at half of the fitted maximal effect.

Row | Structure (SMILES) | Potency
1 | N=C(N)c1ccc(OCCCCCOc2ccc(C(=N)N)cc2)cc1 (tested in a mixture with another compound) | inconclusive: 31.6 µM [inhibitor, partial curve]
2 | CC(=O)N1CCN(c2ccc(OC[C@H]3CO[C@](Cn4ccnc4)(c4ccc(Cl)cc4Cl)O3)cc2)CC1 | inconclusive: 12.6 µM [inhibitor, partial curve, poor fit]
3 | Nc1c(S(=O)(=O)O)cc(Nc2ccc(Nc3nc(Cl)nc(Nc4ccc(S(=O)(=O)O)cc4)n3)c(S(=O)(=O)O)c2)c2c1C(=O)c1ccccc1C2=O | active: 31.6 µM
4 | Nc1ccnc2c1ncn2[C@@H]1O[C@H](CO)[C@@H](O)[C@H]1O | active: 10 µM
5 | O=C1c2c(O)ccc(O)c2C(=O)c2c(NCCNCCO)ccc(NCCNCCO)c21 | active: 31.6 µM
6 | [N-]=[N+]=Nc1nc2c(N)ncnc2n1C1OC(CO)C(O)C1O (stereo not given) | inconclusive: 35.5 µM [inhibitor, partial curve]
7 | O=C1NC(=O)C(=Cc2ccc(-c3ccc(F)cc3O)o2)S1 | active: 35.5 µM
8 | CN1Cc2sccc2C(c2ccc(O)c(O)c2)C1 (stereo not given) | inactive
9 | COc1cc2c(NC3CCN(C)CC3)nc(N3CCCCC3)nc2cc1OCCCN(C)C | inconclusive: 22.4 µM [inhibitor, partial curve]
10 | Cn1ccc2cc3c(cc21)CCN3C(=O)Nc1cccnc1 | inconclusive: 31.6 µM [inhibitor, partial curve]
11 | CSc1nc(N)c2ncn([C@@H]3O[C@H](COP(=O)(O)OP(=O)(O)OP(=O)(O)O)[C@@H](O)[C@H]3O)c2n1 | inactive
12 | NCC(O)C1CCCCCCC1 (stereo not given) | inconclusive: 35.5 µM [inhibitor, partial curve]
13 | CC[N+](CC)(CC)CCOc1cccc(OCC[N+](CC)(CC)CC)c1OCC[N+](CC)(CC)CC | inconclusive: 7.94 µM [inhibitor, partial curve]
14 | O=c1c(O)c(-c2cc(O)c(O)c(O)c2)oc2cc(O)cc(O)c12 | inconclusive: 35.5 µM [inhibitor, partial curve]
15 | Cc1cc(O)c2c(c1)C(=O)c1cc(O)cc(O)c1C2=O | inconclusive: 39.8 µM [inhibitor, partial curve]
16 | CN=c1nc(-c2ccccc2)n(-c2ccccc2)s1 | active: 1 µM
17 | O=C1NC(=O)c2c1c(-c1ccccc1)cc1[nH]c3ccc(O)cc3c21 | inconclusive: 20 µM [inhibitor, partial curve]
18 | CC/C(=C(\c1ccccc1)c1ccc(OCCN(C)C)cc1)c1ccccc1 | inconclusive: 20 µM [inhibitor, partial curve] and inconclusive: 15.8 µM [inhibitor, full curve]
19 | CSc1nc(N)c2ncn([C@@H]3O[C@H](COP(=O)(O)OP(=O)(O)O)C(O)[C@H]3O)c2n1 (stereo not given in full) | active: 20 µM
20 | c1cc(CN2CCCCC2)cc(OCCCNc2nc3ccccc3s2)c1 | inconclusive: 25.1 µM [inhibitor, partial curve]

Row | Structure (SMILES) | Potency
21 | C[N+]1(C)CCC(OC(=O)C(c2ccccc2)c2ccccc2)CC1 | inconclusive: 2.51 µM [inhibitor, partial curve]
22 | O=Nc1c(-c2c(O)[nH]c3cc(Br)ccc23)[nH]c2ccccc12 | inconclusive: 25.1 µM [inhibitor, partial curve]
23 | O=Nc1c(-c2c(O)[nH]c3ccccc23)[nH]c2ccccc12 | inconclusive: 20 µM [inhibitor, partial curve]
24 | O=S(=O)(c1cccc2c(I)cccc12)N1CCCNCC1 | inconclusive: 39.8 µM [inhibitor, partial curve]
25 | N#C/C(=C\c1ccc(O)c(O)c1)C(=O)NCCCNC(=O)/C(C#N)=C/c1ccc(O)c(O)c1 | active: 7.94 µM
26 | COc1ccc(C(=O)/C(Cc2cc(OC)c(OC)c(OC)c2)=C(\C(=O)O)c2ccc3c(c2)OCO3)cc1 | inactive
27 | CSc1ccc2c(c1)C(N1CCN(C)CC1)Cc1ccccc1S2 (stereo not given) | inconclusive: 31.6 µM [inhibitor, partial curve]
28 | CN(C)CCCC1(c2ccc(F)cc2)OCc2cc(C#N)ccc21 (stereo not given) | inconclusive: 31.6 µM [inhibitor, partial curve]
29 | COc1cc2nc(N3CCCN(C)CC3)nc(NC3CCN(Cc4ccccc4)CC3)c2cc1OC | inconclusive: 28.2 µM [inhibitor, partial curve]
30 | CC(=O)/C=C1\C(=O)N(C)c2ccccc21 | inactive
31 | OCCNc1ncnc2c1ncn2[C@@H]1O[C@@H](CO)[C@H](O)[C@@H]1O | inactive
32 | O=C(/C=C/c1ccc(O)c(O)c1)OCCc1ccccc1 | inconclusive: 11.2 µM [inhibitor, full curve]
33 | CCN1CCC[C@H]1CNC(=O)c1cc(S(N)(=O)=O)ccc1OC | inactive
34 | OC[C@H]1O[C@@H](n2cnc3c(NCc4ccco4)ncnc32)[C@H](O)[C@@H]1O | inactive
35 | CCN(CC)CCNC(=O)c1c(C)[nH]c(/C=C2\C(=O)Nc3ccc(F)cc32)c1C | inconclusive: 35.5 µM [inhibitor, partial curve]
36 | COc1cc(CNC(=O)CCCCCCC(C)C)ccc1O | inactive
37 | Oc1cc2c(c(Cl)c1O)CCNCC2c1ccccc1 (stereo not given) | inconclusive: 15.8 µM [inhibitor, partial curve]
38 | Nc1ncnc2c1ncn2[C@H]1O[C@@H](CNS(=O)(=O)NC(=O)c2cccc(-c3noc(-c4ccccc4F)n3)c2)[C@H](O)[C@@H]1O | active: 2 µM
39 | C[C@]12C[C@H](O)[C@H]3[C@@H](CCC4=CC(=O)CC[C@@]43C)[C@@H]1CC[C@@H]2C(=O)CO | inconclusive: 22.4 µM [inhibitor, partial curve]
40 | OCCN1CCN(CCCN2c3ccccc3Sc3ccc(C(F)(F)F)cc32)CC1 | inconclusive: 31.6 µM [inhibitor, partial curve, poor fit]

Compounds 25 through 26, quoted:
Row | Structure (SMILES) | Potency
25 | N#C/C(=C\c1ccc(O)c(O)c1)C(=O)NCCCNC(=O)/C(C#N)=C/c1ccc(O)c(O)c1 | active: 7.94 µM
26 | COc1ccc(C(=O)/C(Cc2cc(OC)c(OC)c(OC)c2)=C(\C(=O)O)c2ccc3c(c2)OCO3)cc1 | inactive
